Results are given in words; binding and its absence hold for the method and conditions named. Some entries that bind do so weakly or less than the wild type.

Amino acid sequences for entries named in this document (tags omitted).
UniProt P62136: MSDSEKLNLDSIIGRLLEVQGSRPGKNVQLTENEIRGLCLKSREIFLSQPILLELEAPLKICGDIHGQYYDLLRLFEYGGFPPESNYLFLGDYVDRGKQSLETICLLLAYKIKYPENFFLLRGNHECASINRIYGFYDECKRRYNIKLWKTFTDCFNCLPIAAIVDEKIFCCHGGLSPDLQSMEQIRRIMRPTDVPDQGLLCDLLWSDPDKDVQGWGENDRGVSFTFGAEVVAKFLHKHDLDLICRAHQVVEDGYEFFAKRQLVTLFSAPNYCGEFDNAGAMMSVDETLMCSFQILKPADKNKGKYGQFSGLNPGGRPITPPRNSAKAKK

This experiment addresses recombinant protein phosphatase-1 catalytic subunit alpha (PP1cα) (UniProt P62136). Kind of experiment: saturation transfer difference NMR; 1.3-1.5 mM peptide with 13.3-14.4 µM rPP1cα or 14-15 µM rPP1cδ in D2O, 10 mM imidazole pH 6.5, 150 mM NaCl; 293 K; irradiation of PP1c resonances at -1.3 ppm; qualitative; both purified.

Take RQSRRSTQGVTL (phosphothreonine at 696 (pT696)): the binding result was “binds”.

For the origin of these results see paper PMC10003451, “Phosphorylated Peptide Derived from the Myosin Phosphatase Target Subunit Is a Novel Inhibitor of Protein Phosphatase-1” (International Journal of Molecular Sciences, 2023).
